Values from PubChem BioAssay AID1259308 (NCATS, 2017).
This is an unselected part of about 59,000 deposited reagents. About 1,510 of all reagents (2.6%) count as active. 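Calls use total luciferase alone and ignore viability, so some active siRNAs may act by altering cell number.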 Entries without a mark were called inactive. The numbers tell different reagents against one gene apart. Not all columns of the deposit are shown.

- Assay: 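Knock-downs that increase output of a recombinant reporter protein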 (primary screen)
- System: human HEK293 embryonic kidney cells stably expressing firefly luciferase (HEK-CMV-Luc2-Hygro)
- Knock-down reagent: single siRNA against human genes, 0.8 pmol siRNA per well
- Time to read-out: 72 h
- Measurement: 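Luciferase light (ONE-Glo) measured on one replicate plate set and viability (CellTiter-Glo) on the other, scaled to a negative control siRNA, with robust z-scores and luciferase per cell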
- Scale: total luciferase, z-score: higher = more reporter protein produced
- Rule for the call: 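An siRNA counts as active if its total luciferase robust z-score exceeds 3; genes with two or more such siRNAs out of three were retested with fresh siRNAs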
- Meaning of the calls: active = raised luciferase; inactive = no rise

total luciferase, z-score, by target gene and reagent
CIC: #1 1.42; #2 0.218; #3 1.29
HUWE1: #1 -0.0617; #2 0.295; #3 0.525
ZBTB7A: #1 -0.655; #2 0.0841; #3 0.28
DNAJB11: #1 -0.268; #2 -0.498; #3 -0.875
NUP210L: #1 -0.721; #2 -0.28; #3 0.00191
NOX5: #1 -1.16; #2 -1.72; #3 2.75
GATAD2A: #1 -2.72; #2 0.912; #3 -1.11
USP46-DT: #1 -2.9; #2 -0.182; #3 0.0283

Targets listed so far whose target name starts with G or g (3):
total luciferase, z-score, by target gene and reagent
GATAD2A: #1 -2.72; #2 0.912; #3 -1.11

Further records:
total luciferase, z-score, by target gene and reagent
SYNGAP1: #1 -0.836; #2 -0.908; #3 -0.732
UNCX: #1 1.98; #2 0.61; #3 -0.902
IGHV4OR15-8: #1 0.236; #2 -1.75; #3 -0.163
MRM1: #1 0.149; #2 0.188; #3 -0.427
NGEF: #1 -1.96; #2 -0.587; #3 0.503
